Assay: general procedure: Fmoc solid-phase peptide synthesis; H-Rink Amide
Conditions: whole synthesis

Question: With “DOTA-D-Dap[(5-SiFA)Ip]-D-glu-L-Ala-L-Tyr-Gly-L-Trp-L-Nle-L-Asp-L-1-NaI” as the substance, how does the isolated yield read?
Answer: 5%

Question: Which isolated yield does the source give for “DOTA-D-Dap[(3-SiFA)Bz]-D-Glu-L-Ala-L-Tyr-Gly-L-Trp-L-Nle-L-Asp-L-1-NaI” here?
Answer: 9%

Question: For “DOTA-D-Dap[(4-SiFA)Bz]-D-Glu-L-Ala-L-Tyr-Gly-L-Trp-L-Nle-L-Asp-L-1-NaI”, which isolated yield is on record?
Answer: 6%

Reference: patent US20260027244A1 (Technische Universität München, priority 2022, published 2026)
